In the supplement of paper PMC6411743:
± gives the standard deviation of the averaged measurements. The entries are a selection whose mix differs from that of the whole data set.

Amino acid sequences for entries named in this document (tags omitted). A change or cut given only in a name is not applied to a line headed by its entry.
UniProt O60331: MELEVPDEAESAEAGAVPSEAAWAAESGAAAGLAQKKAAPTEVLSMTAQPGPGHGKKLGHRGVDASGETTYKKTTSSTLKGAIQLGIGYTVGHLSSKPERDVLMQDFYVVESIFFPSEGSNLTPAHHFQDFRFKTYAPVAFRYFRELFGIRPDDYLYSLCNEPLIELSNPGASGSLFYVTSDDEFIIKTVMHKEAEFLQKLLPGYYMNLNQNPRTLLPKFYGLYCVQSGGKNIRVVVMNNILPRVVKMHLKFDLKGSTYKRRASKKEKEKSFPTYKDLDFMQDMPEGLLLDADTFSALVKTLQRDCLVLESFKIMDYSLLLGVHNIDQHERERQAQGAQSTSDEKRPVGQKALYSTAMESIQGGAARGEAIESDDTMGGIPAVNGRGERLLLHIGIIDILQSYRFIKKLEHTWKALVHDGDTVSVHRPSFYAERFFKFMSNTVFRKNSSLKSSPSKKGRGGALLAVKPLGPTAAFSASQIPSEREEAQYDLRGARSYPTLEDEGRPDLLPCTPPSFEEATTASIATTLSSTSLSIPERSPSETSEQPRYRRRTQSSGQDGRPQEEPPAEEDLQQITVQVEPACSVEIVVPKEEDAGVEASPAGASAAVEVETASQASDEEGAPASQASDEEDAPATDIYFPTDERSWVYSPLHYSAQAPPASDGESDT
UniProt O43684, whole entry: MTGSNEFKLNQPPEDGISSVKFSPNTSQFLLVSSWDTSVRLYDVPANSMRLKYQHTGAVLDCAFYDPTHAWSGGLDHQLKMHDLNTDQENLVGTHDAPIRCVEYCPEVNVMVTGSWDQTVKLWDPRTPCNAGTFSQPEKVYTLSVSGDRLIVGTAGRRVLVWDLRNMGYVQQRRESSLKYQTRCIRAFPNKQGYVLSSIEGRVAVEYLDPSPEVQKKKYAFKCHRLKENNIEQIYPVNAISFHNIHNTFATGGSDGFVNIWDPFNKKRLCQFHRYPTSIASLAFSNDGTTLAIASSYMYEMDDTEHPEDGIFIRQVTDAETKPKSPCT
UniProt Q8IX01: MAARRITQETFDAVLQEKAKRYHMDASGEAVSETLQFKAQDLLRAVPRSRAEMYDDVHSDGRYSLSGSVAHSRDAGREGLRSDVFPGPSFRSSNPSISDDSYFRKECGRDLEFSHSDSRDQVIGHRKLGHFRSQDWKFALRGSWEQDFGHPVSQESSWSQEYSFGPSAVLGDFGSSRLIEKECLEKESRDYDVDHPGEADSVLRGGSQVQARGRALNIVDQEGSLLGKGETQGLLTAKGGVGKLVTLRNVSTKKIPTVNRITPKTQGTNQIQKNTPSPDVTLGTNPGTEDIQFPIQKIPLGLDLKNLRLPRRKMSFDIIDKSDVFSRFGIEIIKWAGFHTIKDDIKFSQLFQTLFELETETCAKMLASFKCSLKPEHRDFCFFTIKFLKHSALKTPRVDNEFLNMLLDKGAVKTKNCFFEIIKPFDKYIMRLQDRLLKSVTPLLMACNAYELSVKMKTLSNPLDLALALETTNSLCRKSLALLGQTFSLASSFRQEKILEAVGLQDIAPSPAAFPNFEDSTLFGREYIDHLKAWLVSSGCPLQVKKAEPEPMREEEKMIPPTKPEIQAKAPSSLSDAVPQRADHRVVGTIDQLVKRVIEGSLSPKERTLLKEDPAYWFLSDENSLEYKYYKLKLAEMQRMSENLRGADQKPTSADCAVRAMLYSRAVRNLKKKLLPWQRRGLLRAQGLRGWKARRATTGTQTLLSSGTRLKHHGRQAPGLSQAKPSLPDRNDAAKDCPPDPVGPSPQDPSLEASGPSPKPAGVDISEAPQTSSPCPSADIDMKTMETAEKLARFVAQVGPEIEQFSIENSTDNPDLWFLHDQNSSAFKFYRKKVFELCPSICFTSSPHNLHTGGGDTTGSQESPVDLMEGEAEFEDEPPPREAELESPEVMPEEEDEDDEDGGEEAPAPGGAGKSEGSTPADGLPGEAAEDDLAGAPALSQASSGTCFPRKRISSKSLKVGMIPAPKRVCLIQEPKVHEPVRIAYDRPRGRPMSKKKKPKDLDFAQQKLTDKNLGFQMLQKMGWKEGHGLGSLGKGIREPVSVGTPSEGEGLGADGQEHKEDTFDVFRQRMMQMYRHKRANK
UniProt O15228: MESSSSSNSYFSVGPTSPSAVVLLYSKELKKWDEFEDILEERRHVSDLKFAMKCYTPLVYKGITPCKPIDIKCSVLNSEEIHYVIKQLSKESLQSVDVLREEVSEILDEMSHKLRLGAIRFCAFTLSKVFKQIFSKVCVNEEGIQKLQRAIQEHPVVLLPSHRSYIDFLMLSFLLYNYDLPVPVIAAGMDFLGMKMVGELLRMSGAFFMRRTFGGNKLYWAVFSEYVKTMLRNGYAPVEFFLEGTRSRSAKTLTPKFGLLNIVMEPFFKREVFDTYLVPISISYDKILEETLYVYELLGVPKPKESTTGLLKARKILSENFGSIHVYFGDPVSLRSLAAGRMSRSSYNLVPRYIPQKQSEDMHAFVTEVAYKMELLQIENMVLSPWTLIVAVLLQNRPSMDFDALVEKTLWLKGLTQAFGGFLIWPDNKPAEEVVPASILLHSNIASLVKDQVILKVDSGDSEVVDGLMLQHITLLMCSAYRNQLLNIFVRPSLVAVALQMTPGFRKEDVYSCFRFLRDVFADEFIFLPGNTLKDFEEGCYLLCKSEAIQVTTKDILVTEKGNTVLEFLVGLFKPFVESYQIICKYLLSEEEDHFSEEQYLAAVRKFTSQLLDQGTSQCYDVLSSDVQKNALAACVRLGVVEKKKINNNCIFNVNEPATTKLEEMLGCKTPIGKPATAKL
UniProt O00483, whole entry: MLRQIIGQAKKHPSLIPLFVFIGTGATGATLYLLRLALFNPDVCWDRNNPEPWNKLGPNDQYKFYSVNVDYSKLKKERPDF
UniProt O43149: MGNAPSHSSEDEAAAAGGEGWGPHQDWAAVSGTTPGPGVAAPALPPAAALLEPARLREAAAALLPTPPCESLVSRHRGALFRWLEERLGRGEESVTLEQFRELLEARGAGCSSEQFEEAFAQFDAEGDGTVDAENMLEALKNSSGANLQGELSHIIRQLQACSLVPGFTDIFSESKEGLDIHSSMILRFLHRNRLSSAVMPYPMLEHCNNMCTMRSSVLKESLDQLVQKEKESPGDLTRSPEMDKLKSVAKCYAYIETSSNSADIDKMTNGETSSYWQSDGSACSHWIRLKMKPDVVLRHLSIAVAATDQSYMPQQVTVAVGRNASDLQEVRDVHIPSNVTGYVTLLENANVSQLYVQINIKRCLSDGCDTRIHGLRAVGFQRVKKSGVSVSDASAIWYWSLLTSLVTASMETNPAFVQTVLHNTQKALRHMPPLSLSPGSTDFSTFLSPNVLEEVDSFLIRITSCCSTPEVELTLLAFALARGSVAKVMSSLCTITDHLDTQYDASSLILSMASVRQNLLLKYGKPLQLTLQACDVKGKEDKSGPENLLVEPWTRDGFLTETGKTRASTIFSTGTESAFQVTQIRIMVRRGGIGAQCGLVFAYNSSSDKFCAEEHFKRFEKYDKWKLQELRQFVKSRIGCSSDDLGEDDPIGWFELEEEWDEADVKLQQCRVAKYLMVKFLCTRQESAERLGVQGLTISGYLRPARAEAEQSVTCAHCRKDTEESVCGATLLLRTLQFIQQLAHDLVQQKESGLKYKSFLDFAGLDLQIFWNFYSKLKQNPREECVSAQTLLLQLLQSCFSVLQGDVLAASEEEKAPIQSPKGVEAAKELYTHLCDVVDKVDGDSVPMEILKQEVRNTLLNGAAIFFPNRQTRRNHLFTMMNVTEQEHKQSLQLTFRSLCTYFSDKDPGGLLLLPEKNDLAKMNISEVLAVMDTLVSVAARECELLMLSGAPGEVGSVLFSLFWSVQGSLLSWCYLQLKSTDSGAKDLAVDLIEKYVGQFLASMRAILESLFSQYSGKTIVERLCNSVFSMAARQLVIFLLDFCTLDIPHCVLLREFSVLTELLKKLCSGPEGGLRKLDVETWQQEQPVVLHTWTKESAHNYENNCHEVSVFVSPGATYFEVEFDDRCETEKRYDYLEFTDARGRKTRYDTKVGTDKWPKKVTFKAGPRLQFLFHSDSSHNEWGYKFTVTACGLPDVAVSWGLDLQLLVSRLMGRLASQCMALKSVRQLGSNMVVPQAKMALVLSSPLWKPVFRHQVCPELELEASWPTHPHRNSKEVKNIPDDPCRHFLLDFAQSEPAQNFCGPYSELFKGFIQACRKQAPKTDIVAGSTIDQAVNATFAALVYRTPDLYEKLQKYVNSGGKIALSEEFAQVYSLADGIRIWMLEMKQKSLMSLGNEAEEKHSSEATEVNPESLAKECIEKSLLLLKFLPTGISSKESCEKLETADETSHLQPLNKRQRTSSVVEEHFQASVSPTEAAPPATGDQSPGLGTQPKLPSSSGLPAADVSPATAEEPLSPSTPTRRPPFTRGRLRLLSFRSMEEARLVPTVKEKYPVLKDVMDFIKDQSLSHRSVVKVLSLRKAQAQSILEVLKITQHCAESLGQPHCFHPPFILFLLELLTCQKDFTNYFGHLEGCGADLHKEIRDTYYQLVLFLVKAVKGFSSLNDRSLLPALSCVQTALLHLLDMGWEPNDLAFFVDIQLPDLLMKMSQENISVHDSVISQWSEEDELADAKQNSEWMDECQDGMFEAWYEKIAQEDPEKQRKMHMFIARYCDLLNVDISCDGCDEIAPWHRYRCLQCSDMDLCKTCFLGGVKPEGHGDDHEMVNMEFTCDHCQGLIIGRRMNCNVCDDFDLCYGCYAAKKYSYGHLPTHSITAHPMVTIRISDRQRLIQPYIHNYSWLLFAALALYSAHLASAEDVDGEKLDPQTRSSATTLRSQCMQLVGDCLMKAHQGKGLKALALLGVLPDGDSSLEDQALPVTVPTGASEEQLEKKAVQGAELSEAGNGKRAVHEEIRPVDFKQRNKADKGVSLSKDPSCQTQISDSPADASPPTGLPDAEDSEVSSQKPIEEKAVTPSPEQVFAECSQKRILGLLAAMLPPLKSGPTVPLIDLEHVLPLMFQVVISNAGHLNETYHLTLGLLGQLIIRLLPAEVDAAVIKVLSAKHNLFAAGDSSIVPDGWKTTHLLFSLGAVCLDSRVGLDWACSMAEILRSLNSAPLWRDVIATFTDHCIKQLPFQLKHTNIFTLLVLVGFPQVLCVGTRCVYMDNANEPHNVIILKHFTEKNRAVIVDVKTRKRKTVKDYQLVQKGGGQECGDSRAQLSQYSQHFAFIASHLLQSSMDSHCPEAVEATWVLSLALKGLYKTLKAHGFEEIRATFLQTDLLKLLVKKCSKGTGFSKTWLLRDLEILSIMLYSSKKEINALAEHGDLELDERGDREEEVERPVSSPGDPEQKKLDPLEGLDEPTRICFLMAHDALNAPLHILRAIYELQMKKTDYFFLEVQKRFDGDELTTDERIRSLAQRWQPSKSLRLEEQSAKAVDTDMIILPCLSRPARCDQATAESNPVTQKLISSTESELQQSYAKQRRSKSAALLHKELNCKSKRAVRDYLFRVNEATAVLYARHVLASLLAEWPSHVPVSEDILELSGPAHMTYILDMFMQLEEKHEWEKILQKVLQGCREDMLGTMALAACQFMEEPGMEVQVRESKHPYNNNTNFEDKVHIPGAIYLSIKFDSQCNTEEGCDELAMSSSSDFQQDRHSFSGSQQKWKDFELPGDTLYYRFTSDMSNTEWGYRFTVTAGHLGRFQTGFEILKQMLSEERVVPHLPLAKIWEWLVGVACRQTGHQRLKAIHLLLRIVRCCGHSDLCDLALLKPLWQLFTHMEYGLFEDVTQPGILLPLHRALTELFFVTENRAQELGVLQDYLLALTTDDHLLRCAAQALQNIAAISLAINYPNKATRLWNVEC
UniProt O15117, whole entry: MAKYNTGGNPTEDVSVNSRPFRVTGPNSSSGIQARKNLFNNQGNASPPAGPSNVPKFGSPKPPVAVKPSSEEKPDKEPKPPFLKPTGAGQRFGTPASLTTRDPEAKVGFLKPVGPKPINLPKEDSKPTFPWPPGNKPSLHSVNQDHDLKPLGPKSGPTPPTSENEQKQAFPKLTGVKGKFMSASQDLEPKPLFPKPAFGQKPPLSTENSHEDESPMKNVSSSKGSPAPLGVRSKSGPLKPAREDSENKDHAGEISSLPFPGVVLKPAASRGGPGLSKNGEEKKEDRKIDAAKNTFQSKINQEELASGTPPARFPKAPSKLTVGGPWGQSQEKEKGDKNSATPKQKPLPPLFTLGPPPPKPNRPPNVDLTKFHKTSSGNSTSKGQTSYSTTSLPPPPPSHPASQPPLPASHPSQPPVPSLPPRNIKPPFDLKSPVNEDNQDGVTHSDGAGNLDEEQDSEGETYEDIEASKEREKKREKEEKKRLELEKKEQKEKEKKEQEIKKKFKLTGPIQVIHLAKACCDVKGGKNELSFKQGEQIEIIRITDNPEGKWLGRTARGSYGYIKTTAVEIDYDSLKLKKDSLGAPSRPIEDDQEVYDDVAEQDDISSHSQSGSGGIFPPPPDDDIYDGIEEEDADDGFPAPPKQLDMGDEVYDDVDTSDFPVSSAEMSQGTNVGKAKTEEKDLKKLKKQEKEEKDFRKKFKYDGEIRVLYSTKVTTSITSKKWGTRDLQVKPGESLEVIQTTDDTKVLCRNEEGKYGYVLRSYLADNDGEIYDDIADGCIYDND

Compound: Nc1ncnc2c1ncn2[C@@H]1O[C@H](COP(=O)(O)OP(=O)(O)OP(=O)(O)O)[C@@H](O)[C@H]1O [adenosine triphosphate]
Experiment: NP40-soluble protein abundance relative to vehicle (solubility fold change) (ratio); higher = more soluble protein in presence of ATP
How it was run: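 In three independent experiments, Jurkat crude lysate made by Dounce homogenisation was treated for 10 min at room temperature and then 3 min at 37 °C with eight concentrations ranging from 0.1 to 10 mM. It was then solubilised with 0.8% NP40 plus benzonase for 60 min at 4 °C and ultracentrifuged. The supernatant was TMT-labelled for LC-MS/MS, and each value is the fold change against the detergent-processed vehicle for the same replicate, using vsn-normalised intensities.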

Target	NP40-soluble protein abundance (concentration: 1mM)	NP40-soluble protein abundance (concentration: 2mM)	NP40-soluble protein abundance (concentration: 4mM)	NP40-soluble protein abundance (concentration: 6mM)	NP40-soluble protein abundance (concentration: 8mM)	NP40-soluble protein abundance (concentration: 10mM)
UniProt O00628 and related entries	1.07 ± 0.031	1.03 ± 0.038	1.13 ± 0.13	0.982 ± 0.14	1.1 ± 0.062	1.09 ± 0.11
UniProt O43379 and related entries	1.04 ± 0.039	1.05 ± 0.012	1.03 ± 0.025	1.01 ± 0.029	1.03 ± 0.038	1.01 ± 0.024
UniProt O15037	0.951 ± 0.095	0.921 ± 0.13	0.901 ± 0.11	0.903 ± 0.19	0.759 ± 0.25	0.916 ± 0.12
SLC16A3 (UniProt O15427)	0.956 ± 0.011	0.934 ± 0.084	0.945 ± 0.048	0.932 ± 0.019	0.941 ± 0.061	0.915 ± 0.049
UniProt O15151 and related entries	1.15 ± 0.29	1.23 ± 0.28	1.06 ± 0.018	1.04 ± 0.035	1.16 ± 0.27	1.25 ± 0.23
UniProt O43324 and related entries	0.969 ± 0.056	0.897 ± 0.052	0.864 ± 0.058	0.879 ± 0.2	0.954 ± 0.13	0.842 ± 0.11
UniProt O43292 and related entries	1.01 ± 0.19	1.07 ± 0.21	1.11 ± 0.18	1.07 ± 0.2	0.965 ± 0.033	1.03 ± 0.13
UniProt O00139 and related entries	0.932 ± 0.034	0.964 ± 0.023	0.976 ± 0.025	1 ± 0.043	1.03 ± 0.027	1.02 ± 0.02
PIK3CD (UniProt O00329)	1.04 ± 0.17	1.01 ± 0.11	1.05 ± 0.12	0.982 ± 0.13	1.09 ± 0.067	1.01 ± 0.095
HGS (UniProt O14964)	0.9266 ± 0.0021	0.938 ± 0.019	0.91 ± 0.0095	0.934 ± 0.043	0.904 ± 0.035	0.923 ± 0.029
AKR7A2 (UniProt O43488)	0.926 ± 0.046	0.954 ± 0.018	0.946 ± 0.014	0.954 ± 0.033	0.94 ± 0.021	0.911 ± 0.037
SYNJ2 (UniProt O15056)	1.03 ± 0.025	1.01 ± 0.011	1.017 ± 0.0097	0.999 ± 0.035	1.01 ± 0.018	1 ± 0.028
UniProt O43747 and related entries	0.938 ± 0.071	0.95 ± 0.083	0.917 ± 0.027	0.864 ± 0.087	0.928 ± 0.017	0.945 ± 0.034
HIP1 (UniProt O00291)	1.01 ± 0.028	1.07 ± 0.037	1.11 ± 0.073	1.15 ± 0.04	1.11 ± 0.065	1.18 ± 0.02
ZBTB24 (UniProt O43167)	1.01 ± 0.062	1.01 ± 0.03	1.05 ± 0.04	0.961 ± 0.018	0.979 ± 0.048	0.962 ± 0.013
STXBP3 (UniProt O00186)	1.02 ± 0.061	1.02 ± 0.077	0.997 ± 0.075	0.973 ± 0.1	1.02 ± 0.064	0.988 ± 0.077
NCK2 (UniProt O43639)	0.999 ± 0.04	0.99 ± 0.039	1 ± 0.049	0.988 ± 0.043	0.997 ± 0.04	0.974 ± 0.04
UniProt O60331 and related entries	1.04 ± 0.16	1.16 ± 0.14	1.05 ± 0.081	1.14 ± 0.2	0.981 ± 0.033	1.05 ± 0.1
UniProt O43684 and related entries	1.09 ± 0.095	1.11 ± 0.05	1.11 ± 0.058	1.1 ± 0.089	1.1 ± 0.036	1.12 ± 0.031
M0R2Z9 and related entries (UniProt Q8IX01)	1.11 ± 0.038	1.09 ± 0.1	1.08 ± 0.099	1.13 ± 0.16	1.12 ± 0.13	1.15 ± 0.13

Target	NP40-soluble protein abundance (concentration: 1mM)	NP40-soluble protein abundance (concentration: 2mM)	NP40-soluble protein abundance (concentration: 4mM)	NP40-soluble protein abundance (concentration: 6mM)	NP40-soluble protein abundance (concentration: 8mM)	NP40-soluble protein abundance (concentration: 10mM)
UniProt O14732 and related entries	0.973 ± 0.1	0.98 ± 0.0035	1 ± 0.046	0.911 ± 0.095	0.99 ± 0.019	0.983 ± 0.035
GNPAT (UniProt O15228)	1.02 ± 0.13	1.02 ± 0.089	0.967 ± 0.084	0.933 ± 0.12	0.981 ± 0.075	0.964 ± 0.048
UniProt O15400 and related entries	0.912 ± 0.067	0.938 ± 0.028	0.944 ± 0.014	0.983 ± 0.033	0.909 ± 0.049	0.874 ± 0.067
UniProt O00330 and related entries	1.23 ± 0.19	1.02 ± 0.14	0.981 ± 0.15	1.04 ± 0.4	1.01 ± 0.24	0.937 ± 0.19
EXTL3 (UniProt O43909)	0.93 ± 0.11	0.994 ± 0.091	0.984 ± 0.14	1.03 ± 0.053	1.05 ± 0.11	1.11 ± 0.094
CLIC1 (UniProt O00299)	0.833 ± 0.23	0.953 ± 0.15	0.857 ± 0.2	0.901 ± 0.094	0.95 ± 0.05	0.878 ± 0.021
UniProt O00487	0.979 ± 0.066	0.887 ± 0.023	0.874 ± 0.036	0.891 ± 0.064	0.911 ± 0.065	0.872 ± 0.039
M0R2P6 and related entries (UniProt Q8TBC3)	1.19 ± 0.023	1.18 ± 0.072	1.26 ± 0.16	1.19 ± 0.065	1.19 ± 0.095	1.2 ± 0.15
M0R3A8 and related entries (UniProt Q9NWS0)	1.01 ± 0.049	0.981 ± 0.03	0.989 ± 0.043	0.97 ± 0.076	0.985 ± 0.022	0.972 ± 0.046
BET1 (UniProt O15155)	1 ± 0.084	0.98 ± 0.066	0.998 ± 0.035	0.946 ± 0.09	0.992 ± 0.082	0.972 ± 0.053
IFIT3 (UniProt O14879)	0.906 ± 0.1	0.885 ± 0.12	0.909 ± 0.11	0.893 ± 0.14	0.862 ± 0.11	0.873 ± 0.12
UniProt O60337 and related entries	1.07 ± 0.073	1.1 ± 0.075	1.03 ± 0.046	1.05 ± 0.048	1.11 ± 0.12	1.1 ± 0.2
UniProt O14965 and related entries	1.07 ± 0.091	1.06 ± 0.08	1.12 ± 0.054	1.13 ± 0.12	1.1 ± 0.077	1.17 ± 0.056
M0QZR4 (UniProt Q92888)	1.015 ± 0.0021	1.01 ± 0.015	0.995 ± 0.019	1 ± 0.026	0.996 ± 0.035	1 ± 0.034
UniProt O43422	1.02 ± 0.098	0.967 ± 0.076	0.948 ± 0.092	0.892 ± 0.072	0.915 ± 0.075	0.903 ± 0.052
NDUFA4 (UniProt O00483)	0.912 ± 0.034	0.897 ± 0.042	0.849 ± 0.025	0.867 ± 0.014	0.8942 ± 0.0052	0.834 ± 0.022
UniProt O14773 and related entries	0.932 ± 0.033	0.939 ± 0.019	0.902 ± 0.029	0.892 ± 0.048	0.9 ± 0.037	0.877 ± 0.029
UniProt O15260 and related entries	1.01 ± 0.12	1.01 ± 0.1	1.01 ± 0.11	0.941 ± 0.11	1.02 ± 0.11	0.98 ± 0.12
KPNA4 (UniProt O00629)	1.05 ± 0.059	1.05 ± 0.049	1.04 ± 0.012	1.08 ± 0.02	1.05 ± 0.093	1.02 ± 0.039
UniProt O00422 and related entries	1.21 ± 0.2	1.13 ± 0.26	1.06 ± 0.25	1.07 ± 0.32	0.829 ± 0.22	1.05 ± 0.24

Exported field by field: part of the list above
UniProt O14732 and related entries
  NP40-soluble protein abundance (concentration: 1mM): 0.973 ± 0.1; NP40-soluble protein abundance (concentration: 2mM): 0.98 ± 0.0035; NP40-soluble protein abundance (concentration: 4mM): 1 ± 0.046; NP40-soluble protein abundance (concentration: 6mM): 0.911 ± 0.095; NP40-soluble protein abundance (concentration: 8mM): 0.99 ± 0.019; NP40-soluble protein abundance (concentration: 10mM): 0.983 ± 0.035
M0R3A8 and related entries (UniProt Q9NWS0)
  NP40-soluble protein abundance (concentration: 1mM): 1.01 ± 0.049; NP40-soluble protein abundance (concentration: 2mM): 0.981 ± 0.03; NP40-soluble protein abundance (concentration: 4mM): 0.989 ± 0.043; NP40-soluble protein abundance (concentration: 6mM): 0.97 ± 0.076; NP40-soluble protein abundance (concentration: 8mM): 0.985 ± 0.022; NP40-soluble protein abundance (concentration: 10mM): 0.972 ± 0.046
M0QZR4 (UniProt Q92888)
  NP40-soluble protein abundance (concentration: 1mM): 1.015 ± 0.0021; NP40-soluble protein abundance (concentration: 2mM): 1.01 ± 0.015; NP40-soluble protein abundance (concentration: 4mM): 0.995 ± 0.019; NP40-soluble protein abundance (concentration: 6mM): 1 ± 0.026; NP40-soluble protein abundance (concentration: 8mM): 0.996 ± 0.035; NP40-soluble protein abundance (concentration: 10mM): 1 ± 0.034
UniProt O14773 and related entries
  NP40-soluble protein abundance (concentration: 1mM): 0.932 ± 0.033; NP40-soluble protein abundance (concentration: 2mM): 0.939 ± 0.019; NP40-soluble protein abundance (concentration: 4mM): 0.902 ± 0.029; NP40-soluble protein abundance (concentration: 6mM): 0.892 ± 0.048; NP40-soluble protein abundance (concentration: 8mM): 0.9 ± 0.037; NP40-soluble protein abundance (concentration: 10mM): 0.877 ± 0.029

(continued)

Target	NP40-soluble protein abundance (concentration: 1mM)	NP40-soluble protein abundance (concentration: 2mM)	NP40-soluble protein abundance (concentration: 4mM)	NP40-soluble protein abundance (concentration: 6mM)	NP40-soluble protein abundance (concentration: 8mM)	NP40-soluble protein abundance (concentration: 10mM)
HTATSF1 (UniProt O43719)	0.884 ± 0.022	0.859 ± 0.012	0.796 ± 0.015	0.847 ± 0.013	0.7503 ± 0.0064	0.746 ± 0.013
M0R0N0 and related entries (UniProt O95182)	0.979 ± 0.095	0.955 ± 0.12	0.973 ± 0.041	0.988 ± 0.17	0.923 ± 0.06	0.916 ± 0.1
MCM3AP (UniProt O60318)	1.07 ± 0.048	1.01 ± 0.22	1.01 ± 0.092	1.02 ± 0.18	1.01 ± 0.13	1.02 ± 0.13
UniProt O00743 and related entries	1 ± 0.13	0.97 ± 0.082	0.95 ± 0.081	0.931 ± 0.12	1 ± 0.062	0.951 ± 0.059
O60344 and related entries (UniProt P0DPD6)	0.949 ± 0.06	0.96 ± 0.11	1.11 ± 0.17	1.05 ± 0.2	1.02 ± 0.097	1.01 ± 0.14
POLRMT (UniProt O00411)	1.09 ± 0.14	1.04 ± 0.026	0.997 ± 0.048	0.98 ± 0.096	1.04 ± 0.062	1.04 ± 0.036
CBX4 (UniProt O00257)	1.02 ± 0.051	1.03 ± 0.078	1.06 ± 0.049	1.17 ± 0.2	1.16 ± 0.12	1.22 ± 0.08
VWA5A (UniProt O00534)	1.1 ± 0.13	1.05 ± 0.019	1.091 ± 0.0092	1.06 ± 0.059	1.02 ± 0.023	1.02 ± 0.096
UniProt O43296	0.928 ± 0.077	0.91 ± 0.015	0.913 ± 0.029	0.882 ± 0.11	0.874 ± 0.056	0.842 ± 0.11
OIP5 (UniProt O43482)	0.9 ± 0.091	0.928 ± 0.062	0.917 ± 0.068	0.876 ± 0.14	0.838 ± 0.13	0.929 ± 0.085
UniProt O43295 and related entries	0.946 ± 0.045	1.02 ± 0.12	1 ± 0.053	0.959 ± 0.05	0.94 ± 0.051	0.93 ± 0.075
UniProt O00182 and related entries	1.06 ± 0.071	0.996 ± 0.045	1.05 ± 0.072	0.969 ± 0.053	1.03 ± 0.048	1.02 ± 0.073
ZZEF1 (UniProt O43149)	1.05 ± 0.067	1.01 ± 0.039	0.993 ± 0.043	0.986 ± 0.1	1.02 ± 0.047	0.997 ± 0.086
UniProt O43704	0.936 ± 0.014	0.9594 ± 0.0053	0.981 ± 0.017	0.9293 ± 0.0054	0.946 ± 0.06	0.922 ± 0.059
AKAP10 (UniProt O43572)	1.04 ± 0.053	1.05 ± 0.059	1.07 ± 0.082	0.998 ± 0.14	0.987 ± 0.087	1.07 ± 0.039
UniProt O00442 and related entries	1.04 ± 0.084	1.01 ± 0.071	0.996 ± 0.043	1 ± 0.11	0.984 ± 0.035	0.995 ± 0.057
UniProt O43299 and related entries	1.09 ± 0.1	0.99 ± 0.11	1.11 ± 0.15	1.08 ± 0.32	1.09 ± 0.098	1.13 ± 0.19
UniProt O43760 and related entries	0.8141 ± 0.0031	0.895 ± 0.046	0.948 ± 0.11	0.86 ± 0.018	0.853 ± 0.057	0.889 ± 0.058
UBE2L6 (UniProt O14933)	0.898 ± 0.11	0.878 ± 0.067	0.889 ± 0.15	0.85 ± 0.1	0.901 ± 0.073	0.885 ± 0.088
UniProt O15117-2|O15117-3	0.943 ± 0.046	0.9539 ± 0.002	0.901 ± 0.012	0.9964 ± 0.0088	0.904 ± 0.04	0.9277 ± 0.0011
